Measurements reported in PubChem BioAssay AID1159578 (Peter MacCallum Cancer Centre, 2015)
The deposit covers about 18,000 reagents; below is an unselected part. Of all reagents, about 1,030 (5.7%) were called active. 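Inactive calls also include pools with fewer than 3300 nuclei, whose migration was not assessed.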 Raw values vary from plate to plate and are shown uncorrected. Reagents against one gene are numbered here. No sequences are given here.

- Screen: 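siRNA pools altering how lymphatic endothelial cells close a scratch wound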 (primary screen)
- System: human lymphatic endothelial cells
- Reagents: siRNA pool against human genes, 40 nM
- Timing: 48 h after transfection
- Read-out: 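Cells stained with dye and imaged after a scratch; covered wound area and nuclei counted, duplicates averaged, migration set against mock wells and turned into a robust z-score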
- Scale: migration robust z-score: higher = faster migration into the scratch; migration relative to mock: higher = more scratch area covered than mock; nuclei per well: higher = more cells in the well
- Rule for the call: 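Migration changed when robust z exceeds 2 or falls below -2 and mean nuclei number is at least 3300; otherwise not called changed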
- Meaning of the calls: active = migration changed; inactive = no migration change, or too few cells

Target gene | pool no. | migration robust z-score | migration class with cell-count check | migration relative to mock | nuclei per well, duplicate mean | outcome
GLT1D1 | 1 | -0.34 | migration z between -2 and 2; enough cells | 0.74 | 4841 | inactive
TMEM98 | 1 | -1.34 | migration z between -2 and 2; enough cells | 0.54 | 6179 | inactive
SPRR4 | 1 | -0.5 | migration z between -2 and 2; enough cells | 0.75 | 5674 | inactive
SLC35C1 | 1 | -2.21 | migration z below -2; enough cells | 0.38 | 5096 | active
ZFP36 | 1 | -0.62 | migration z between -2 and 2; enough cells | 0.72 | 4292 | inactive
RBM15 | 1 | -1.38 | migration z between -2 and 2; enough cells | 0.52 | 5376 | inactive
TXNIP | 1 | -0.47 | migration z between -2 and 2; enough cells | 0.76 | 4424 | inactive
CCDC60 | 1 | 0.79 | migration z between -2 and 2; enough cells | 1.09 | 4908 | inactive
RCHY1 | 1 | -0.05 | migration z between -2 and 2; enough cells | 0.8 | 5622 | inactive
UBE2J2 | 1 | -0.99 | migration z between -2 and 2; enough cells | 0.61 | 3828 | inactive
LGALS7B | 1 | -0.56 | migration z between -2 and 2; enough cells | 0.74 | 6042 | inactive
PLA2G4D | 1 | -0.16 | migration z between -2 and 2; enough cells | 0.78 | 5014 | inactive
ARL3 | 1 | 1.24 | migration z between -2 and 2; enough cells | 1.21 | 6492 | inactive
PMPCA | 1 | 1.48 | migration z between -2 and 2; enough cells | 1.09 | 5602 | inactive
TUBAL3 | 1 | -1.33 | migration z between -2 and 2; enough cells | 0.55 | 3882 | inactive
SFRP4 | 1 | 0.96 | migration z between -2 and 2; enough cells | 0.99 | 6418 | inactive
PSMD14 | 1 | -0.57 | migration z between -2 and 2; enough cells | 0.7 | 5213 | inactive
PTK6 | 1 | -0.39 | migration z between -2 and 2; enough cells | 0.73 | 5099 | inactive
PCSK6 | 1 | -1.12 | migration z between -2 and 2; enough cells | 0.59 | 5010 | inactive
PODXL | 1 | 1.06 | migration z between -2 and 2; enough cells | 1.16 | 6918 | inactive
APOA1 | 1 | -0.57 | migration z between -2 and 2; enough cells | 0.7 | 5781 | inactive
ACOX3 | 1 | 0.28 | migration z between -2 and 2; enough cells | 0.86 | 4958 | inactive
ANK1 | 1 | -0.17 | migration z between -2 and 2; enough cells | 0.84 | 5746 | inactive
CACNG6 | 1 | -0.8 | migration z between -2 and 2; enough cells | 0.65 | 5304 | inactive
DNLZ | 1 | 0.03 | migration z between -2 and 2; enough cells | 0.9 | 5700 | inactive
TGFBR2 | 1 | -2.67 | migration z below -2; enough cells | 0.29 | 4013 | active
NPAS2 | 1 | 0 | migration z between -2 and 2; enough cells | 0.8 | 4942 | inactive
SSNA1 | 1 | -2.33 | migration z below -2; enough cells | 0.28 | 6026 | active
PIK3CA | 1 | 0 | migration z between -2 and 2; enough cells | 0.8 | 5902 | inactive
CEP192 | 1 | -0.68 | migration z between -2 and 2; enough cells | 0.71 | 5917 | inactive
FUOM | 1 | -1.48 | migration z between -2 and 2; enough cells | 0.5 | 5256 | inactive
POLR2J | 1 | -2.72 | migration z below -2; enough cells | 0.28 | 5091 | active
OR5AN1 | 1 | 0.6 | migration z between -2 and 2; enough cells | 1.04 | 4744 | inactive
OTUD3 | 1 | 0.16 | migration z between -2 and 2; enough cells | 0.84 | 4548 | inactive
MYH4 | 1 | 0.94 | migration z between -2 and 2; enough cells | 0.99 | 5444 | inactive
FMO2 | 1 | -0.06 | migration z between -2 and 2; enough cells | 0.8 | 4260 | inactive
MMP19 | 1 | 0.57 | migration z between -2 and 2; enough cells | 0.92 | 5788 | inactive
FAM229B | 1 | -0.29 | migration z between -2 and 2; enough cells | 0.81 | 4255 | inactive
CHRNB3 | 1 | -0.05 | migration z between -2 and 2; enough cells | 0.8 | 6604 | inactive
CD33 | 1 | -0.18 | migration z between -2 and 2; enough cells | 0.84 | 6206 | inactive
KLRD1 | 1 | -0.44 | migration z between -2 and 2; enough cells | 0.72 | 4712 | inactive
CXCR3 | 1 | 0.29 | migration z between -2 and 2; enough cells | 0.86 | 6479 | inactive
ZNF608 | 1 | -0.94 | migration z between -2 and 2; enough cells | 0.64 | 5660 | inactive
VPS16 | 1 | 1.19 | migration z between -2 and 2; enough cells | 1.2 | 5052 | inactive
SLC19A4P | 1 | -1.7 | migration z between -2 and 2; enough cells | 0.44 | 4036 | inactive
OR7G1 | 1 | -2.34 | migration z below -2; enough cells | 0.28 | 5899 | active
USP33 | 1 | 0.02 | migration z between -2 and 2; enough cells | 0.81 | 5584 | inactive
ATE1 | 1 | 0.88 | migration z between -2 and 2; enough cells | 0.98 | 6058 | inactive
UNC13B | 1 | 1.58 | migration z between -2 and 2; enough cells | 1.29 | 5982 | inactive
PCDHB3 | 1 | 3.04 | migration z above 2; enough cells | 1.68 | 6819 | active
PRMT3 | 1 | 0.21 | migration z between -2 and 2; enough cells | 0.84 | 6344 | inactive
NAV1 | 1 | 0.83 | migration z between -2 and 2; enough cells | 0.96 | 5562 | inactive
MKNK2 | 1 | 1.48 | migration z between -2 and 2; enough cells | 1.09 | 5756 | inactive
SETDB2 | 1 | 0.88 | migration z between -2 and 2; enough cells | 0.98 | 4952 | inactive
BNC2 | 1 | -0.32 | migration z between -2 and 2; enough cells | 0.8 | 3406 | inactive
EPGN | 1 | 0.02 | migration z between -2 and 2; enough cells | 0.88 | 6452 | inactive
GSTA2 | 1 | 0.6 | migration z between -2 and 2; enough cells | 0.92 | 6308 | inactive
CCL14 | 1 | 1.2 | migration z between -2 and 2; enough cells | 1.04 | 5471 | inactive
NOM1 | 1 | 1.5 | migration z between -2 and 2; enough cells | 1.27 | 7231 | inactive
CLN6 | 1 | 0.18 | migration z between -2 and 2; enough cells | 0.93 | 5610 | inactive
ING2 | 1 | -0.77 | migration z between -2 and 2; enough cells | 0.66 | 4890 | inactive
TAFA1 | 1 | -0.32 | migration z between -2 and 2; enough cells | 0.8 | 5408 | inactive
PILRB | 1 | 0.8 | migration z between -2 and 2; enough cells | 1.09 | 6392 | inactive
CIT | 1 | -1.12 | migration z between -2 and 2; enough cells | 0.59 | 5284 | inactive
FCGR1A | 1 | -0.36 | migration z between -2 and 2; enough cells | 0.74 | 6180 | inactive
OR1E1 | 1 | 0.95 | migration z between -2 and 2; enough cells | 1.14 | 5738 | inactive
LATS1 | 1 | 0.34 | migration z between -2 and 2; enough cells | 0.87 | 5036 | inactive
GGNBP2 | 1 | 0.62 | migration z between -2 and 2; enough cells | 1.04 | 4774 | inactive
CLEC4F | 1 | -0.56 | migration z between -2 and 2; enough cells | 0.74 | 5397 | inactive
SNX10 | 1 | 0.54 | migration z between -2 and 2; enough cells | 1.02 | 5933 | inactive
OBSCN | 1 | 0.11 | migration z between -2 and 2; enough cells | 0.82 | 4928 | inactive
OBSCN | 2 | -0.53 | migration z between -2 and 2; enough cells | 0.74 | 4442 | inactive
RPRD2 | 1 | 0.12 | migration z between -2 and 2; enough cells | 0.92 | 5841 | inactive

A stretch of the results above, as a working copy:
Target gene | pool no. | migration robust z-score | migration class with cell-count check | migration relative to mock | nuclei per well, duplicate mean | outcome
RCHY1 | 1 | -0.05 | migration z between -2 and 2; enough cells | 0.8 | 5622 | inactive
UBE2J2 | 1 | -0.99 | migration z between -2 and 2; enough cells | 0.61 | 3828 | inactive
LGALS7B | 1 | -0.56 | migration z between -2 and 2; enough cells | 0.74 | 6042 | inactive
PLA2G4D | 1 | -0.16 | migration z between -2 and 2; enough cells | 0.78 | 5014 | inactive
ARL3 | 1 | 1.24 | migration z between -2 and 2; enough cells | 1.21 | 6492 | inactive
PMPCA | 1 | 1.48 | migration z between -2 and 2; enough cells | 1.09 | 5602 | inactive
TUBAL3 | 1 | -1.33 | migration z between -2 and 2; enough cells | 0.55 | 3882 | inactive
SFRP4 | 1 | 0.96 | migration z between -2 and 2; enough cells | 0.99 | 6418 | inactive
